According to patent US9522164B2, “Disulfide chemotherapeutic agents and methods of use thereof” (Lankenau Institute for Medical Research, priority 2007, dated 2016):

Key:
[1] = test system: human colon cancer cells HT29; assay: Detoxification/bioreduction of HEDS to mercaptoethanol (DTNB); assay type: cell-based; conditions: HEDS 3 hours
[2] = test system: human colon cancer cells HCT116; assay: as above; assay type: cell-based

## OCCSSCCO [HEDS, hydroxyethyldisulfide]
[1]; HT29, cells incubated with glucose
  mercaptoethanol (ME) generated from HEDS: up to 3000 μM
[1]; HT29, cells without glucose (deprived 4 hours)
  efficiency of converting HEDS into ME relative to cells with glucose: six times less efficient
[2]; HCT116, cells incubated with glucose, HEDS 3 hours
  mercaptoethanol (ME) generated from HEDS: up to 3000 μM
[2]; HCT116, cells without glucose (deprived 4 hours), HEDS 3 hours
  efficiency of converting HEDS into ME relative to cells with glucose: six times less efficient
[2]; HCT116, low concentrations (1-3 mM) of glucose compared to physiological 5 mM
  detoxification of HEDS: not being able to detoxify HEDS effectively
